Data as given in PubChem BioAssay AID1224831 (NIAID, 2016).
Shown is an unselected part of about 3,500 reagents. 731 of all reagents (21%) were called active. 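Active means either lowered or raised reporter signal; the gene-median score did not drive the per-siRNA calls.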 The numbers tell different reagents against one gene apart. No sequences are given here.

- Aim: 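Retesting screen hits on the TLR4-driven TNF response with six separate siRNAs each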 (follow-up of hits)
- Cells: human THP-1 B5 monocytic leukaemia cells carrying a TNF promoter luciferase reporter, made macrophage-like with PMA
- Reagents: single siRNA against human genes, 50 nM
- Duration: about 68 h of knock-down, then 4 h LPS
- Conditions: LPS (Salmonella minnesota, TLR-grade) at 10 ng/ml for 4 h; PMA 5 ng/ml present during knock-down
- Read-out: 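TNF promoter reporter read as dual luciferase ratio after 4 h LPS, normalised per plate to its median, given as replicate mean robust z-score per siRNA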
- Reading the numbers: TNF reporter z-score: higher = stronger LPS-induced TNF reporter signal; z-score, median over gene's siRNAs: higher = stronger TNF reporter signal across the gene's siRNAs
- Hit rule: 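Active when the replicate mean z-score is about -1 or lower, or about 1.5 or higher; lowered and raised TNF reporter signal both count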
- Meaning of the calls: active = changed TNF reporter (either direction); inactive = little change

no.	Gene	reagent no.	TNF reporter z-score, replicate mean	z-score, median over gene's siRNAs	call
1	SAMTOR (GeneID 154743)	1	0.06	0.25	inactive
2	SAMTOR (GeneID 154743)	2	0.44	0.25	inactive
3	SAMTOR (GeneID 154743)	3	0.48	0.25	inactive
4	SAMTOR (GeneID 154743)	4	-0.34	0.25	inactive
5	SAMTOR (GeneID 154743)	5	-0.22	0.25	inactive
6	SAMTOR (GeneID 154743)	6	0.65	0.25	inactive
7	WDR45 (GeneID 11152)	1	0.43	0.58	inactive
8	WDR45 (GeneID 11152)	2	0.73	0.58	inactive
9	WDR45 (GeneID 11152)	3	-0.73	0.58	inactive
10	WDR45 (GeneID 11152)	4	0.06	0.58	inactive
11	WDR45 (GeneID 11152)	5	1.15	0.58	inactive
12	WDR45 (GeneID 11152)	6	2.26	0.58	active
13	SOWAHB (GeneID 345079)	1	-1.45	-0.81	active
14	SOWAHB (GeneID 345079)	2	0.94	-0.81	inactive
15	SOWAHB (GeneID 345079)	3	1.22	-0.81	inactive
16	SOWAHB (GeneID 345079)	4	-1.09	-0.81	active
17	SOWAHB (GeneID 345079)	5	-1.12	-0.81	active
18	SOWAHB (GeneID 345079)	6	-0.53	-0.81	inactive
19	C5AR2 (GeneID 27202)	1	0.23	-0.47	inactive
20	C5AR2 (GeneID 27202)	2	-0.57	-0.47	inactive
21	C5AR2 (GeneID 27202)	3	0.48	-0.47	inactive
22	C5AR2 (GeneID 27202)	4	-0.74	-0.47	inactive
23	C5AR2 (GeneID 27202)	5	-0.76	-0.47	inactive
24	C5AR2 (GeneID 27202)	6	-0.37	-0.47	inactive
25	MPV17 (GeneID 4358)	1	-0.17	-0.495	inactive
26	MPV17 (GeneID 4358)	2	-0.82	-0.495	inactive
27	MPV17 (GeneID 4358)	3	-1.78	-0.495	active
28	MPV17 (GeneID 4358)	4	4.61	-0.495	active
29	MPV17 (GeneID 4358)	5	-1.06	-0.495	active
30	MPV17 (GeneID 4358)	6	0.84	-0.495	inactive
31	SPSB3 (GeneID 90864)	1	-0.32	-0.49	inactive
32	SPSB3 (GeneID 90864)	2	-0.7	-0.49	inactive
33	SPSB3 (GeneID 90864)	3	-0.04	-0.49	inactive
34	SPSB3 (GeneID 90864)	4	-1.26	-0.49	active
35	SPSB3 (GeneID 90864)	5	-0.66	-0.49	inactive
36	SPSB3 (GeneID 90864)	6	-0.2	-0.49	inactive

4 consecutive entries already listed, for reference:
no.	Gene	reagent no.	TNF reporter z-score, replicate mean	z-score, median over gene's siRNAs	call
29	MPV17 (GeneID 4358)	5	-1.06	-0.495	active
30	MPV17 (GeneID 4358)	6	0.84	-0.495	inactive
31	SPSB3 (GeneID 90864)	1	-0.32	-0.49	inactive
32	SPSB3 (GeneID 90864)	2	-0.7	-0.49	inactive
